Values of other authors in patent US20230192715A1 (priority 2020, published 2023).
Where two headings read alike, the source gives them in different places.

Tested on: NE or 5-HT re-uptake
Conditions: Codd et al., 1995, cited from earlier work

Row | SMILES | action as NE or 5-HT re-uptake inhibitor (listed as Dextromorphine) | action as NE or 5-HT re-uptake inhibitor
1 | CN1CC[C@@]23c4c5ccc(O)c4O[C@@H]2[C@H](O)C=C[C@@H]3[C@@H]1C5 [d-Morphine] | no actions as a NE or 5-HT re-uptake inhibitor | 
2 | CN1CC[C@@]23c4c5ccc(O)c4O[C@@H]2[C@H](O)C=C[C@@H]3[C@@H]1C5 [Levomorphine] |  | no action as a NE or 5-HT re-uptake inhibitor
